In publication PMC2174531:
Results are given in words; binding and its absence hold for the method and conditions named. Binding seen in cells or lysates may run through a third protein. Some entries that bind do so weakly or less than the wild type. Tags and fused reporters may be left off the sequences shown.

Protein sequences, listed by entry. Tags and fused reporters are not part of them.
UniProt P38398: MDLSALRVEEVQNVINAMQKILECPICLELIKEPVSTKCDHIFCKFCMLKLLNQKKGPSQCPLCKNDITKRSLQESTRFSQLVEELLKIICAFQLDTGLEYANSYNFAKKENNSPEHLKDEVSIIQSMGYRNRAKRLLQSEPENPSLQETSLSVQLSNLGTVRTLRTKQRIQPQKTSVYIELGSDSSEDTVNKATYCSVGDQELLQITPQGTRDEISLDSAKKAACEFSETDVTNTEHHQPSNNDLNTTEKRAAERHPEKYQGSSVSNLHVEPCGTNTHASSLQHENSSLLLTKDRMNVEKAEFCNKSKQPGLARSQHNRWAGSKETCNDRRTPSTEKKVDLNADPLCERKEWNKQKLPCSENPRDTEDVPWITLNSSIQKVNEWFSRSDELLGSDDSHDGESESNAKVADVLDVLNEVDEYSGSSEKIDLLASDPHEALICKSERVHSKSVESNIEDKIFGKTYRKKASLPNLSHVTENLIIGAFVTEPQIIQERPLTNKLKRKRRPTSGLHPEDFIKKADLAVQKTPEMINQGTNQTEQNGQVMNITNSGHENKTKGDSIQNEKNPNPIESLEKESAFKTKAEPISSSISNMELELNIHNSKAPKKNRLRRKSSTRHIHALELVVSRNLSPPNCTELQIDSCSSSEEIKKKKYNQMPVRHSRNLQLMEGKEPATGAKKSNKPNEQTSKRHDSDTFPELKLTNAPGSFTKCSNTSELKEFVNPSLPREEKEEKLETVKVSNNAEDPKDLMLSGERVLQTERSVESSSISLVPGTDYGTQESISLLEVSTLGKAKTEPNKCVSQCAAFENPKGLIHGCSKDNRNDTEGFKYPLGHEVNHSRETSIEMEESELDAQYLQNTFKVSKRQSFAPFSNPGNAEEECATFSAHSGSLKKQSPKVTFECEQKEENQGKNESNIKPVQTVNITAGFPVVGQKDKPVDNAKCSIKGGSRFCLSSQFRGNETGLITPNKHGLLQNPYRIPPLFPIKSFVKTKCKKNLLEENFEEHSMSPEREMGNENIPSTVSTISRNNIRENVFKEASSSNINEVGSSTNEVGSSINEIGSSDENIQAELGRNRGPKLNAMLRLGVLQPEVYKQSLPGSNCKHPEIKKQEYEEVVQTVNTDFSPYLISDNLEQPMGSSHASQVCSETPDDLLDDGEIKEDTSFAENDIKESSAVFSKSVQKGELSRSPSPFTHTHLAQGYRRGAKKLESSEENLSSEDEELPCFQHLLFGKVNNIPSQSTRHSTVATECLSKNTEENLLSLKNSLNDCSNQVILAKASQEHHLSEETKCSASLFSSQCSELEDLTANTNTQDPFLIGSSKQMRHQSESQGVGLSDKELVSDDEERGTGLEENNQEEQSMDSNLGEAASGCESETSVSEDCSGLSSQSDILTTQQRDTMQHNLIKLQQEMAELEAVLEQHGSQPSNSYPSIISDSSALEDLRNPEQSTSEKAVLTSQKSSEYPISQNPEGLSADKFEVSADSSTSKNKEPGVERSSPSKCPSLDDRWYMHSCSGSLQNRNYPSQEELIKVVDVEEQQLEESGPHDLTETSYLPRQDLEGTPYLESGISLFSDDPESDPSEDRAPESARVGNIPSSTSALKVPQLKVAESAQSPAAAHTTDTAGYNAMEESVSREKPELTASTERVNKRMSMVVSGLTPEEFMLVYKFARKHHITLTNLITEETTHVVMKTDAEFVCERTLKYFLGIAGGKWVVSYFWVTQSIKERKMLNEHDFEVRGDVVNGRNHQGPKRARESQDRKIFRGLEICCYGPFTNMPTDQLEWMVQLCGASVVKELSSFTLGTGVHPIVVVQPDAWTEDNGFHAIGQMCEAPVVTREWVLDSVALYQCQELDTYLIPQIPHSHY

Target: BRCA1 (full-length wild type, expressed in yeast from the GAL::BRCA1 plasmid) (human) (UniProt P38398)
Assay: co-IP; yeast whole cell lysates co-expressing BRCA1 and Spt4-V5, prepared in various concentrations of NP40; IP overnight at 4°C with anti-BRCA1 antibody (MS110) or normal mouse IgG; blot with anti-V5; maximal at 0.8% NP40

B1: V5 tagged Spt4p (protein, UniProt P32914 1-102)
chain: MSSERACMLCGIVQTTNEFNRDGCPNCQGIFEEAGVSTMECTSPSFEGLVGMCKPTKSWVAKWLSVDHSIAGMYAIKVDGRLPAEVVELLPHYKPRDGSQVE
  binding: binds
